Binding data for two molecules are collected here from patent publication CN1649900A.

Amino acid sequences for entries named in this document (tags omitted). Residues count along the entry.
UniProt P07359, residues 17-531: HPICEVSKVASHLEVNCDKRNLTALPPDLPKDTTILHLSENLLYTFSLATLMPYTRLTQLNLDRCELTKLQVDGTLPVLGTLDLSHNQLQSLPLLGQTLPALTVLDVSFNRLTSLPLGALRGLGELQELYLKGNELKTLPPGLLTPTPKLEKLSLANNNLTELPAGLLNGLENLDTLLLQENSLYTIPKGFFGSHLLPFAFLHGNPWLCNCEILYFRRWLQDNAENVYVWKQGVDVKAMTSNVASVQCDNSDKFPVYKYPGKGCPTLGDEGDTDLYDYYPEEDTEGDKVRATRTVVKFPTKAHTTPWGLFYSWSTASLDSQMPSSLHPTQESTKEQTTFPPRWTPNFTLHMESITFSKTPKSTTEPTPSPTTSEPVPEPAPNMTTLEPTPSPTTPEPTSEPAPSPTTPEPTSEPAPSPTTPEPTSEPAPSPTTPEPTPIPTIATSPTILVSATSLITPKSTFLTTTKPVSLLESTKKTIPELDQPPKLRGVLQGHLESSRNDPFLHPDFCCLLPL

In assay [1] the target is glycocalicin purified from human platelets (soluble extracellular fragment of GPIbα) (human) (UniProt P07359). Nature of the assay: Western blot.
Assay [2] shares this target. Nature of the assay: Western blot after O-sialoglycoprotein endopeptidase or ficin cleavage.
The target in assay [3] is T1, complement compound 4 (CC4) from human plasma (human) (UniProt P0C0L4).
T1 sequence (looked up): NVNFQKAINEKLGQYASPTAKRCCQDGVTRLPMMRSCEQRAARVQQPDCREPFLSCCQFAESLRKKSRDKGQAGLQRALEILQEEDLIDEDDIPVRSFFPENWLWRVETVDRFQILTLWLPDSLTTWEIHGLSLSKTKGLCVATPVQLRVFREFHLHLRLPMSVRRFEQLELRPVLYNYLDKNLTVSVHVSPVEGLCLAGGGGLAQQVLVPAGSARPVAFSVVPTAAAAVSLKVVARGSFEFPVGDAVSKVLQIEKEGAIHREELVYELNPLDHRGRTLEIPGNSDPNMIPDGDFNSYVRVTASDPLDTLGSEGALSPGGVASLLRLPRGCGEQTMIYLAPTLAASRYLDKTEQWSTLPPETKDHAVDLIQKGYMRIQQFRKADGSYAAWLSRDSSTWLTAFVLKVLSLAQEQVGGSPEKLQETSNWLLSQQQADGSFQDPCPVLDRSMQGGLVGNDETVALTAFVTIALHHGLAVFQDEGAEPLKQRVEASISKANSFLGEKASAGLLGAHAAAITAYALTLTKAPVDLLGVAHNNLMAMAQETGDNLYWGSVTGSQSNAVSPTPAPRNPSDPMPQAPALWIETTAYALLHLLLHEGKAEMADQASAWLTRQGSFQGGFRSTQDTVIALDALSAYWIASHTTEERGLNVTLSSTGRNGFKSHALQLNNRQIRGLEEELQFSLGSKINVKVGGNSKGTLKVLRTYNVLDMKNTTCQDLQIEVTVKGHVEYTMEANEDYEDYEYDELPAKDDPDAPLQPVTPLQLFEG
Nature of the assay: immunoreaction with plasma proteins.

For assay [4], the target named is T1, complement compound 4 (CC4) from human plasma (human). The assay is described as follows: binding to human plasma proteins.
Assay [5] shares this target. Nature of the assay: summary.

These are yes or no findings as the source states them, for the method shown. Some binding calls cover weakened binding; strength is not graded here.

B1: Y17 scFv (scFv)
scFv: EVQLVESGGGVVRPGGSLRLSCAASGFTFDDYGMSWVRQAPGKGLEWVSGINWNGGSTGYADSVKGRFTISRDNAKNSLYLQMNSLRAEDTAVYYCARLTHPYFWGQGTLVTVSRGGGGSGGGGSGGGGSSELTQDPAVSVALGQTVRITCQGDSLRSYYASWYQQKPGQAPVLVIYGKNNRPSGIPDRFSGSSSGNTASLTITGAQAEDEADYYCNSRDSSGNHVVFGGGTKLTVLGAAAEQKLISEEDLNGAA
As for B1, the binding entry in assay [1] and in assay [2] was “binds” throughout.

B2: Y1 scFv (human single-chain Fv antibody fragment Y1) (scFv)
scFv: EVQLVESGGGVVRPGGSLRLSCAASGFTFDDYGMSWVRQAPGKGLEWVSGINWNGGSTGYADSVKGRFTISRDNAKNSLYLQMNSLRAEDTAVYYCARMRAPVIWGQGTLVTVSRGGGGSGGGGSGGGGSSELTQDPAVSVALGQTVRITCQGDSLRSYYASWYQQKPGQAPVLVIYGKNNRPSGIPDRFSGSSSGNTASLTITGAQAEDEADYYCNSRDSSGNHVVFGGGTKLTVLGAAAEQKLISEEDLNGAA
For B2, the binding result in assay [3], in assay [4] and in assay [5] was “binds” each time.
